The supplement of paper PMC8858631
Where a name gives a salt, the structure may show the parent alone. Some of the results follow. Rule as the data show it: active = 0.5 or less and inactive = the rest. Most values come without repeats; read them as rough.

What follows are molecules tested on SK-MEL-28 (assay: EEF2K protein level normalised to actin (western blot) after treatment (ratio (EEF2K/Actin)); higher = more EEF2K protein remaining (less EEF2K suppression)). Details: 5 µM; 24 h.

Row | Compound | EEF2K protein level normalised to actin
1 | Nc1nc2[nH]cnc2c(=S)[nH]1 [Thioguanine] | active: 0.46
2 | CC(O)c1cc(C(=O)N[C@@H](C)Cn2ccc(-c3ccc(C#N)c(Cl)c3)n2)n[nH]1 (stereo partly specified) [Darolutamide (ODM-201)] | inactive: 2.2
3 | O=C(Nc1cnn2ccc(N3CCC[C@@H]3c3cc(F)ccc3F)nc12)N1CC[C@H](O)C1 [Larotrectinib (LOXO-101) sulfate] | inactive: 0.92
4 | Cc1cn(-c2cc(NC(=O)c3ccc(C)c(Nc4nccc(-c5cnccn5)n4)c3)cc(C(F)(F)F)c2)cn1 [Radotinib] | inactive: 1.3
5 | O=c1[nH]cc(F)c(=O)[nH]1 [Fluorouracil (5-Fluoracil, 5-FU)] | inactive: 0.6
6 | C=C(NC(=O)C(=C)NC(=O)c1csc(C2=N[C@@H]3c4csc(n4)[C@H]4NC(=O)c5csc(n5)[C@H]([C@](C)(O)[C@@H](C)O)NC(=O)[C@H]5CSC(=N5)/C(=C/C)NC(=O)[C@H]([C@@H](C)O)NC(=O)c5csc(n5)[C@]3(CC2)NC(=O)[C@H](C)NC(=O)C(=C)NC(=O)[C@H](C)NC(=O)[C@H]([C@@H](C)CC)N[C@@H]2C=Cc3c([C@H](C)O)cc(nc3[C@H]2O)C(=O)O[C@@H]4C)n1)C(N)=O [Thiostrepton] | inactive: 1.04
7 | CNC(=O)c1cc(Oc2ccc(NC(=O)Nc3ccc(Cl)c(C(F)(F)F)c3)c(F)c2)ccn1 [Regorafenib Monohydrate] | inactive: 1.17
8 | CCCCCCNC(=O)n1cc(F)c(=O)[nH]c1=O [Carmofur] | active: 0.48
9 | CS(=O)(=O)CCNCc1ccc(-c2ccc3ncnc(Nc4ccc(OCc5cccc(F)c5)c(Cl)c4)c3c2)o1 | inactive: 0.63
10 | C[C@@H]1CCN(C(=O)CC#N)C[C@@H]1N(C)c1ncnc2[nH]ccc12 | inactive: 1.2
11 | CC(C)(O)CNc1nc(Nc2ccnc(C(F)(F)F)c2)nc(-c2cccc(C(F)(F)F)n2)n1 [Enasidenib (AG-221)] | inactive: 0.71
12 | C=CC[C@@H]1/C=C(\C)C[C@H](C)C[C@H](OC)[C@H]2O[C@@](O)(C(=O)C(=O)N3CCCC[C@H]3C(=O)O[C@H](/C(C)=C/[C@@H]3CC[C@@H](O)[C@H](OC)C3)[C@H](C)[C@@H](O)CC1=O)[C@H](C)C[C@@H]2OC [Tacrolimus (FK506)] | inactive: 0.96
13 | CC[C@@]1(O)C(=O)OCc2c1cc1n(c2=O)Cc2cc3cc(O)ccc3nc2-1 [Hydroxy Camptothecine] | active: 0.42
14 | CC[C@@]1(O)C(=O)OCc2c1cc1n(c2=O)Cc2cc3c([N+](=O)[O-])cccc3nc2-1 [Rubitecan] | inactive: 5.85
15 | CC(=O)Nc1cccc(-n2c(=O)n(C3CC3)c(=O)c3c(Nc4ccc(I)cc4F)n(C)c(=O)c(C)c32)c1 | inactive: 1.3
16 | CC1=C(/C=C/C(C)=C/C=C/C(C)=C/C(=O)Nc2ccc(O)cc2)C(C)(C)CCC1 [Fenretinide] | active: 0.21
17 | O=C(O)CCCc1ccccc1 [Sodium Phenylbutyrate] | inactive: 1.2
18 | COc1ccc(-c2cc(=S)ss2)cc1 [Anethole trithione] | inactive: 1.96

Row | Compound | EEF2K protein level normalised to actin
19 | Cc1nc(=O)c2cc(CN(C)c3ccc(C(=O)N[C@@H](CCC(=O)O)C(=O)O)s3)ccc2[nH]1 [Raltitrexed] | inactive: 1.71
20 | CNC(=O)c1ccccc1Sc1ccc2c(/C=C/c3ccccn3)n[nH]c2c1 [Axitinib] | inactive: 0.64
21 | O=C(O)CCCN1CCC(O[C@@H](c2ccc(Cl)cc2)c2ccccn2)CC1 [Bepotastine Besilate] | inactive: 0.52
22 | Nc1cccc2c1C(=O)N(C1CCC(=O)NC1=O)C2=O (stereo unspecified) [Pomalidomide] | inactive: 0.81
23 | O=C1Nc2ccccc2/C1=C1/Nc2ccccc2C1=O [Indirubin] | inactive: 3.13
24 | CC(C)=CCC[C@](C)(O[C@@H]1O[C@H](CO)[C@@H](O)[C@H](O)[C@H]1O)[C@H]1CC[C@]2(C)[C@@H]1[C@H](O)C[C@@H]1[C@@]3(C)CC[C@H](O)C(C)(C)[C@@H]3[C@@H](O[C@@H]3O[C@H](CO)[C@@H](O)[C@H](O)[C@H]3O)C[C@]12C [Ginsenoside Rg1] | inactive: 2.03
25 | CCN(CC)CCNC(=O)c1c(C)[nH]c(/C=C2\C(=O)Nc3ccc(F)cc32)c1C [Sunitinib] | inactive: 1.86
26 | CC(=O)Oc1ccccc1C(=O)O [Aspirin] | inactive: 0.69
27 | Nc1ncn([C@@H]2O[C@H](CO)[C@@H](O)[C@H]2O)c(=O)n1 [Azacitidine] | inactive: 0.72
28 | N.N.O=C([O-])C[O-].[Pt+2] [Nedaplatin] | inactive: 0.89
29 | Cn1cc(C2=C(c3cccc(N)c3)C(=O)NC2=O)c2ccccc21 | inactive: 3.19
30 | C#Cc1cccc(Nc2ncnc3cc(OCCOC)c(OCCOC)cc23)c1 [Erlotinib HCl (OSI-744)] | inactive: 1.42
31 | CNNCc1ccc(C(=O)NC(C)C)cc1 [Procarbazine HCl] | inactive: 0.64
32 | CC[C@]1(O)C[C@H]2CN(CCc3c([nH]c4ccccc34)[C@@](C(=O)OC)(c3cc4c(cc3OC)N(C=O)[C@H]3[C@@](O)(C(=O)OC)[C@H](OC(C)=O)[C@]5(CC)C=CCN6CC[C@]43[C@@H]65)C2)C1 [Vincristine sulfate] | inactive: 0.86
33 | COc1cc2nccc(Oc3ccc(NC(=O)C4(C(=O)Nc5ccc(F)cc5)CC4)cc3)c2cc1OC | inactive: 1.25
34 | CCC(C)n1ncn(-c2ccc(N3CCN(c4ccc(OCC5COC(Cn6cncn6)(c6ccc(Cl)cc6Cl)O5)cc4)CC3)cc2)c1=O (stereo unspecified) [Itraconazole] | inactive: 1.1
35 | COc1cc(N2CCC(N3CCN(C)CC3)CC2)ccc1Nc1ncc(Cl)c(Nc2ccccc2P(C)(C)=O)n1 | inactive: 0.74
36 | CO[C@H]1O[C@@H]2O[C@@]3(C)CC[C@H]4[C@H](C)CC[C@@H]([C@H]1C)[C@@]24OO3 [Artemether] | inactive: 1.31

Gathered by group, those above containing fluorine (ten)
Row | Compound | EEF2K protein level normalised to actin
3 | O=C(Nc1cnn2ccc(N3CCC[C@@H]3c3cc(F)ccc3F)nc12)N1CC[C@H](O)C1 [Larotrectinib (LOXO-101) sulfate] | inactive: 0.92
4 | Cc1cn(-c2cc(NC(=O)c3ccc(C)c(Nc4nccc(-c5cnccn5)n4)c3)cc(C(F)(F)F)c2)cn1 [Radotinib] | inactive: 1.3
5 | O=c1[nH]cc(F)c(=O)[nH]1 [Fluorouracil (5-Fluoracil, 5-FU)] | inactive: 0.6
7 | CNC(=O)c1cc(Oc2ccc(NC(=O)Nc3ccc(Cl)c(C(F)(F)F)c3)c(F)c2)ccn1 [Regorafenib Monohydrate] | inactive: 1.17
8 | CCCCCCNC(=O)n1cc(F)c(=O)[nH]c1=O [Carmofur] | active: 0.48
9 | CS(=O)(=O)CCNCc1ccc(-c2ccc3ncnc(Nc4ccc(OCc5cccc(F)c5)c(Cl)c4)c3c2)o1 | inactive: 0.63
11 | CC(C)(O)CNc1nc(Nc2ccnc(C(F)(F)F)c2)nc(-c2cccc(C(F)(F)F)n2)n1 [Enasidenib (AG-221)] | inactive: 0.71
15 | CC(=O)Nc1cccc(-n2c(=O)n(C3CC3)c(=O)c3c(Nc4ccc(I)cc4F)n(C)c(=O)c(C)c32)c1 | inactive: 1.3
25 | CCN(CC)CCNC(=O)c1c(C)[nH]c(/C=C2\C(=O)Nc3ccc(F)cc32)c1C [Sunitinib] | inactive: 1.86
33 | COc1cc2nccc(Oc3ccc(NC(=O)C4(C(=O)Nc5ccc(F)cc5)CC4)cc3)c2cc1OC | inactive: 1.25
